The supplement of paper PMC10338343
± gives the standard deviation. The entries are a selection whose mix differs from that of the whole data set. Many entries were measured with a wide error.

system: MILI (PIWIL2) piRISC loaded with piRNA #1 (26 nt); test: pre-steady-state target cleavage rate (min^-1); MIWI and MILI are mouse PIWI proteins and EfPiwi is from a freshwater sponge; tags in brackets are library labels; higher = faster piRNA-guided slicing of the target; settings: guide: piRNA #1 5'p-UGAGGUAGUAGGUUGUAUAGUAUCCA; auxiliary factor: 500 nM mouse GTSF1
In short: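 For Cleave-'n-Seq, a transcribed, DNA-blocked target RNA library […] met 1 nM active affinity-purified piRISC with one synthetic guide at 33 °C for 0–8 or 0–960 min in HEPES–potassium acetate buffer, with or without 500 nM GTSF1 partner protein. Uncleaved targets were sequenced and normalised to depth and weakly complementary targets, with three trials pooled and k3 capped at 0.0001 min^-1. A burst-and-steady-state fit supplied the pre-steady-state cleavage rate.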
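Further: 1 nM active piRISC with 0.1 nM target library at 33 °C single turnover.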

Sequence | pre-steady-state target cleavage rate
GGAGAGGAAACUAUACAACCUACUAGCUCA | 0.0535 ± 0.019
GGAGUGGAUACUAUACAACCUACUACCUCCA | 0.223 ± 0.011
GGAGACCUAACUAUAGUACCUACUACCUCA | 0.122 ± 0.022
GGAGAGGAUACUAUACACCCUACUACCUCA | 0.122 ± 0.015
GGAGACGAUACUUUACAUCCUACUACCUCA | 0.257 ± 0.016
GGAGACCUAUCUAUACAACCUACAUGGAGA [g8:g20:cont:t1A] | 0.00152 ± 0.0053
GGAGACCAUACUAUACUUGGAUGAUGGAGA [g15:g23:cont:t1A] | < 0.0001
GGAGUGGAUACUAUACAAGCUACUACGUCA | 0.0651 ± 0.013
GGAGACCUAUGAUUUCUACCUACUACCUCA | 0.000279 ± 0.014
GGAGACGAUACUAUACAACCUACUUCCACA | 0.0194 ± 0.0082
GGAGACCUUACUAGACAACCUACUACCUCA | 0.155 ± 0.015
GGAGACCUAACUAUUCAUCCUACUACCUCA | 0.322 ± 0.043
GGAGAGGAUCUAUACAACCUACUACCUCA | 0.171 ± 0.013
GGAGACGAUACUAAACAACCUACUACCUGA | 0.124 ± 0.02
GGAGACCAUACUAUACAACCUAGUACCUCA | 0.0657 ± 0.013
GGAGUGCAUACUAUACAACCUAGUACCUCA | 0.0477 ± 0.0091
GGAGUGGAUACUAUACAACCAACUUCCUCA | 0.00125 ± 0.0037
GGAGACCUAACUAUUCAACCUUCUACCUCA | 0.00422 ± 0.0049
GGAGACCUAUGAUUAGAACCUACUACCACA | 0.000225 ± 0.015
GGAGACCUAUGAAUACAACCUACUAGGACA | 0.000407 ± 0.017

In a second layout: entries from further up.

| Sequence | pre-steady-state target cleavage rate |
| --- | --- |
| GGAGACCUAACUAUUCAUCCUACUACCUCA | 0.322 ± 0.043 |
| GGAGACCAUACUAUACAACCUAGUACCUCA | 0.0657 ± 0.013 |

(continued)

Sequence | pre-steady-state target cleavage rate
GGAGACCAUACUAUACAACCCACUACCUCA | 0.0223 ± 0.0041
GGAGACCUAUGAUAUCAACCUUCUUCCUCA | 0.000201 ± 0.015
GGAGAGGAUACUAUUCAUCCUACUACCUCA | 0.273 ± 0.02
GGAGACCUAUGAUAUCAACCUACUACCUACA | 0.0017 ± 0.0034
GGAGACCUAUGAUAUGUACCUACUACACUCA | 0.000152 ± 0.013
GGAGAGGAUACUAUACCAACCUACUACCUCA | 0.0443 ± 0.0084
GGAGACGAUACUAUUCUACCUACUACCUCA | 0.173 ± 0.012
GGAGUGGAUACUAUACAACCAUGUACCUCA | 0.00209 ± 0.0031
GGAGUGGAUAUAUACAACCUACUACCUCA | 0.152 ± 0.01
GGAGACCUCACUAUACAACCUACUACCUCA | 0.252 ± 0.029
GGAGACCUUACUAUACAACGCUACUACCUCA | 0.00146 ± 0.0061
GGAGACCUAUGAUAUCAACCUACUUGGAGA [g7:g15:cont:t1A] | 0.000106 ± 0.022
GGAGACCUAUGAUAACAACCAUGAUGGAGA [g11:g16:cont:t1A] | 0.00012 ± 0.023
GGAGUGGAUACUAUUGUACCUACUACCUCA | 0.115 ± 0.0083
GGAGUGGAUACUAAACAACCUACUACCUCA | 0.168 ± 0.0092
GGAGACGAUACUAUACAUCCUACAACCUCA | 0.287 ± 0.022
GGAGACCUUACUAUCAACCUACUACCUCA | 0.0728 ± 0.0079
GGAGACCAUACUAUACAACCUACUAGGUCA | 0.00208 ± 0.0046
GGAGACCUAUGAUAUCAAACCUACUACCUCA | 0.00119 ± 0.0042
